In article doi:10.1101/2021.03.29.435803:
Results are given in words; binding and its absence hold for the method and conditions named. In cells and extracts the contact can be indirect. These calls come from enrichment with a bait or labelling near it, and not all partners need be listed.

Chains of the proteins cited; added tags and fusions are not shown.
UniProt Q60843: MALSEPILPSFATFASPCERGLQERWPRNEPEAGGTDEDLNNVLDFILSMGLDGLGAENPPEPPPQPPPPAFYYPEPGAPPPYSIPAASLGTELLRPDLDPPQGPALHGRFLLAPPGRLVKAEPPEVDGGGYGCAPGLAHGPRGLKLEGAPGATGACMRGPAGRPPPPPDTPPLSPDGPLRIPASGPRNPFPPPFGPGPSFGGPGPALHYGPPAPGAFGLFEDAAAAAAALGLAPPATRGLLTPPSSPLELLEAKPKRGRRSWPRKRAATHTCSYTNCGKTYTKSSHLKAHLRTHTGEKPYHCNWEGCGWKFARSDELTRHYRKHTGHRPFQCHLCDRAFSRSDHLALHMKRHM
UniProt Q9WTX6: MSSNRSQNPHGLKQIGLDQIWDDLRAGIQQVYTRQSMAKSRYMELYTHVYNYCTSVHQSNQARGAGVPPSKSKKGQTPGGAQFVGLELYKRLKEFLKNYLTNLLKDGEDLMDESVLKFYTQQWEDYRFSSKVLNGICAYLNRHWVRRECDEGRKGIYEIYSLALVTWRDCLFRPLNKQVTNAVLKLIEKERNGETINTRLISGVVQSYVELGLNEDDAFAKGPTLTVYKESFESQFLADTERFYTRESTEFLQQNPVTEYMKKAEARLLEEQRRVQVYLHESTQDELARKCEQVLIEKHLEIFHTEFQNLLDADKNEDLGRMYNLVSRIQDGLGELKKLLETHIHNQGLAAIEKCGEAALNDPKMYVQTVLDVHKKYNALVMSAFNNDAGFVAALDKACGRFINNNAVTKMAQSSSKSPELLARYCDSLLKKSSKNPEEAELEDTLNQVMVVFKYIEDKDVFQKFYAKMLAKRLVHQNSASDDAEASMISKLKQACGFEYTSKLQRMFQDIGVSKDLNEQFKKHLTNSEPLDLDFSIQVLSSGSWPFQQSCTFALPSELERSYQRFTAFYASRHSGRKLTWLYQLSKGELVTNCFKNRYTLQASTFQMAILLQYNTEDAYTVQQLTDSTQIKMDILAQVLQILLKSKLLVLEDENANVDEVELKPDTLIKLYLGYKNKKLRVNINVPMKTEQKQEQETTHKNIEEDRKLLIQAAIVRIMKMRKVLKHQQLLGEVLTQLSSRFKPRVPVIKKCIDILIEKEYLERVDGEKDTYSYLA
UniProt Q8VBV4: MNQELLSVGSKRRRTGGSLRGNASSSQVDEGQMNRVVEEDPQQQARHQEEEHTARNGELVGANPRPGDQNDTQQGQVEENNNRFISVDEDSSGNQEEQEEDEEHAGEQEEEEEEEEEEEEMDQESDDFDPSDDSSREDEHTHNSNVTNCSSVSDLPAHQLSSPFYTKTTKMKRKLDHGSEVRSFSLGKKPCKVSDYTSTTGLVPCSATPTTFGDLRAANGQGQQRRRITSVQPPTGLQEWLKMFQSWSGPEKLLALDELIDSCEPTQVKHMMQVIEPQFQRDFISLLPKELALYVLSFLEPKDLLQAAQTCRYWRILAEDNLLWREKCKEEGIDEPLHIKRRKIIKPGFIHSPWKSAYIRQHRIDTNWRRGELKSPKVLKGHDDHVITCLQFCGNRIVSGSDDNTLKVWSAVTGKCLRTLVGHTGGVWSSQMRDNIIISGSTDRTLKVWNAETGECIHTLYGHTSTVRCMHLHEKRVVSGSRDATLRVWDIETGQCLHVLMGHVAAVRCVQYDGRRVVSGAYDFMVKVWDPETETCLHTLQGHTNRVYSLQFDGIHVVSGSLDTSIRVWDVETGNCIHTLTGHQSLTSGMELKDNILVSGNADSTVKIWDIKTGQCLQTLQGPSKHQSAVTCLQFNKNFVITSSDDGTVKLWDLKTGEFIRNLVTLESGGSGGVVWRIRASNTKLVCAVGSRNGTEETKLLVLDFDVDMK

Target: 3xFLAG-KLF2 wildtype (UniProt Q60843)
Assay: affinity purification with mass spectrometry

binding	Substance
binds	CUL1 (endogenous, mESCs) (from UniProt Q9WTX6 1-776)
binds	FBW7 (endogenous, mESCs) (from UniProt Q8VBV4 1-710)
